Source: publication PMC9279153, “Structure of the Dicer-2–R2D2 heterodimer bound to a small RNA duplex”
For at least one entry, the source does not settle the construct or the ends of the probe.

Legend:
Assay in all cases: photocrosslinking
Dicer-2 + R2D2 = settings: p* crosslinks to Dicer-2; 5-iodouracil at position 20 of strand 1 (written as U); Crosslinking: 20 nM siRNA, 40 nM Dicer-2-R2D2, 30 min, >300 nm UV 60 s, buffer not given; recombinant protein; protein details: 8xHis (structure prep),3xFlag
Dicer-2 + R2D2 W205A = settings: p* crosslink to Dicer-2 retained; 5-iodouracil at position 20 of strand 1 (written as U); Crosslinking: 20 nM siRNA, 40 nM Dicer-2-R2D2, 30 min, >300 nm UV 60 s, buffer not given; recombinant protein; protein details: 8xHis (structure prep),3xFlag
Dicer-2 + R2D2 K98A = settings: p* crosslinking not affected by K98A; 5-iodouracil at position 20 of strand 1 (written as U); Crosslinking: 20 nM siRNA, 40 nM Dicer-2-R2D2, 30 min, >300 nm UV 60 s, buffer not given; recombinant protein; protein details: 8xHis (structure prep),3xFlag

Measured: binding result

UGAGGUAGUAGGUUGUAUAUU / AAUACAACCUACUACCUCAUU [p* siRNA (siRNA-1/siRNA-3)]
binds: all assays above
